This is an account of results in patent publication US8853196B2, “Aminochromane, aminothiochromane and amino-1,2,3,4-tetrahydroquinoline derivatives, pharmaceutical compositions containing them, and their use in therapy” (AbbVie Deutschland GmbH & Co. KG, priority 2011, dated 2014).

The chains behind the UniProt entries cited, without tags or fusion partners.
UniProt P48067, whole entry: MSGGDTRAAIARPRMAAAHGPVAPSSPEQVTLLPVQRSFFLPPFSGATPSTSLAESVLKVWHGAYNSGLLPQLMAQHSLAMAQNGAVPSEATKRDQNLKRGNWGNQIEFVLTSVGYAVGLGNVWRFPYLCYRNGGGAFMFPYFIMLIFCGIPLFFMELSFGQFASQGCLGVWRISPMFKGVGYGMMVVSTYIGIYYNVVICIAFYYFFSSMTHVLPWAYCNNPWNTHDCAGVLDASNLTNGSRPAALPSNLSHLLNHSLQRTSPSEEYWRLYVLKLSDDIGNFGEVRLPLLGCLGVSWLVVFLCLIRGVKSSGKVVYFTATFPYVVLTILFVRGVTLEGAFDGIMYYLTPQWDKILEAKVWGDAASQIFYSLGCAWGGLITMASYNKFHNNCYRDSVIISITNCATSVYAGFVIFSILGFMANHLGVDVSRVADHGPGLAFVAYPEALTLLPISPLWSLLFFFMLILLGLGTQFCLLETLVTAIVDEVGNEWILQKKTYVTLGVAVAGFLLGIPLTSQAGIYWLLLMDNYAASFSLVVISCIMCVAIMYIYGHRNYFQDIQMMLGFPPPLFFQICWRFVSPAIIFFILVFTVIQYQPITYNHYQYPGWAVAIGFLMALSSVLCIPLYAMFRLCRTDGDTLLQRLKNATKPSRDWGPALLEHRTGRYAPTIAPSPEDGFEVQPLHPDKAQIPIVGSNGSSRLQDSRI

In the assay the target is human GlyT1c transporter (Homo sapiens, UniProt P48067). Briefly: Radioligand binding assay using recombinant CHO cell membranes expressing human GlyT1. As to conditions: read-out: radioligand binding Kiapp, values given as upper bounds.

pKi: −log10 of the molar value. The match of structure and compound is tentative. Some results are limits rather than exact numbers.

With `Cn1cnc(S(=O)(=O)NCc2ccc3c(c2)[C@@H](Cc2ccccc2)[C@@H](N2CCC2)CO3)c1` (relative stereo), the pKi was not below 8.00.
